Results on one substance are retold here after publication doi:10.1101/780460.

Results are given in words; binding and its absence hold for the method and conditions named. Binding seen in cells or lysates may run through a third protein. A result given as binding can be weak or reduced; the word gives no strength.

In this test the target is Flag-tagged SOD1^G127X (human) (UniProt P00441). Description: co-IP.

As to “Myc-tagged TRAF6 wild type (from UniProt Q9Y4K3 1-522)”, the binding result is reported as “binds”.
